Experimental findings from paper PMC7819943, “Rice protein-binding microarrays: a tool to detect cis-acting elements near promoter regions in rice” are described below.

Some of the results follow.

For the assay, the target named is T1, OsSMF1 (Oryza sativa, UniProt Q6ZLB0 1-436).
T1 sequence: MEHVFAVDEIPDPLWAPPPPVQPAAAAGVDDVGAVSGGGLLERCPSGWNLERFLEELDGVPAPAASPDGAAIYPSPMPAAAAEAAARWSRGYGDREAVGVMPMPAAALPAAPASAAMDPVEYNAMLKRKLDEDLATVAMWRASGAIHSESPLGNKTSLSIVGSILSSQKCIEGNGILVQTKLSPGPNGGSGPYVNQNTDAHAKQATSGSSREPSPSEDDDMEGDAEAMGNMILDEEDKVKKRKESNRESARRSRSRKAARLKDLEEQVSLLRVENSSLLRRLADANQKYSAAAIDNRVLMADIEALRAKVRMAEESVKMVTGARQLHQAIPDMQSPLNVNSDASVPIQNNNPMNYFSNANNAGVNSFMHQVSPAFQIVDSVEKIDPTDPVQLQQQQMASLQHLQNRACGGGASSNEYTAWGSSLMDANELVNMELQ
Kind of assay: protein-binding microarray (RPBM); PBS, 2% BSA, 51.3 ng/ul salmon testes DNA, 50 uM zinc acetate, 200 nM TF, 25 C, 1 h; high values mean tight binding. The note with it: protein: recombinant; tags: N-terminal polyhistidine and DsRed monomer fusion (pET32a); chain copies: 2; label: CyDye5-dUTP incorporated in the synthesized complementary strand; 3' TTTTT single-stranded linker to array surface; dsDNA, one strand shown. An outline of the steps:
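A custom Agilent array was converted to double-stranded form by primer extension with Cy5-dUTP and blocked with 2% BSA. Protein at 200 nM in PBS with 2% BSA, salmon testes DNA and 50 µM zinc acetate was applied for 1 h at 25 °C, followed by washing. The proteins were polyhistidine–DsRed N-terminal fusions of transcription factors, expressed in E. coli BL21-CodonPlus and Ni–NTA-purified. The binding signal is per-feature fluorescence intensity (arbitrary units) from an Axon 4000B scanner.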
With “GAAGGAGTAGATTAATGTCTTCTACTGGGACTGTCCGTCACGGAGTCACCTAGTGCAG”, the binding signal was 8980 fluorescence intensity (a.u.).

As for “CCAGTAGAAAGAGCAACGTGGCGGGCAGTGTCGTCTTCTTCGGAGTCACCTAGTGCAG”, the binding signal is 7700 fluorescence intensity (a.u.). The result for “TCACCTTTCACTTCATCCATCTCTACACATCAGCAATATTCGGAGTCACCTAGTGCAG” reads 7280 fluorescence intensity (a.u.).

“GCACACCTTCCCTTGATGTCAGCTTTGATAGTGTTGAGGTCGGAGTCACCTAGTGCAG”: the binding signal was 3760 fluorescence intensity (a.u.). Take “TGTGCCCTCTCCGTTCGATCCAGGAAAATGATAGTGTGATCGGAGTCACCTAGTGCAG”: the binding signal was 50200 fluorescence intensity (a.u.). On to “CAGCGTCGCACGCTTTTCACGCCATGCCGTCACGGTGCCTCGGAGTCACCTAGTGCAG”, for which the binding signal was 4080 fluorescence intensity (a.u.). With “GATCGACTACGACGATGCCTTCGCTCCCGTGGCACAGATGCGGAGTCACCTAGTGCAG” the figure was 3390 fluorescence intensity (a.u.). Consider “CTAGCTTAATTCTGTTTTCATCGTTGTTGGTTTACTTTGACGGAGTCACCTAGTGCAG”, for which the binding signal was 25100 fluorescence intensity (a.u.). Consider “TCCTGGGAAGGCATATAAATTGTTACGTGGTACTTAGAATCGGAGTCACCTAGTGCAG”, for which the binding signal was 3540 fluorescence intensity (a.u.). With “CTACCCCGGATAGCGGATTCACCAAGTTCGCAGCAGCAATCGGAGTCACCTAGTGCAG” the figure was 19200 fluorescence intensity (a.u.); with “AATCCTCTTTGGGAGGACATGGCTTTTGTGTTTAGTGAATCGGAGTCACCTAGTGCAG”, 4060 fluorescence intensity (a.u.). With “GGCGCTGATGTCATGCTGACGTCAGTGCCTGATTTTGCTCCGGAGTCACCTAGTGCAG” the figure was 56100 fluorescence intensity (a.u.); with “TCCGCCCATCCAGTCTTGGCCGCGGCGCCACCTCGCAGGTCGGAGTCACCTAGTGCAG”, 3600 fluorescence intensity (a.u.); with “TTTTCGGCCAAATATTCCCGCGCCATCTCCGCTTTGTCAGCGGAGTCACCTAGTGCAG”, 3600 fluorescence intensity (a.u.).

In the case of “GCCGACGGTTGGGGCATGCATCTCGTCAGCCTCTAACGGCCGGAGTCACCTAGTGCAG”, the binding signal is 5810 fluorescence intensity (a.u.). For the sequence “GCGAAGTGTCATTGCCGGCTCAGTGGATACACACACAGGACGGAGTCACCTAGTGCAG”, the binding signal is 3330 fluorescence intensity (a.u.). On to “TAGGATTGGCGAAGACACCATAGACGAATCTGTAATGAAGCGGAGTCACCTAGTGCAG”, for which the binding signal was 3370 fluorescence intensity (a.u.). Take “AGACGAAAACGGCCGTCACCGTCCCGTCGCCGTCATCCGGCGGAGTCACCTAGTGCAG”: the binding signal was 3670 fluorescence intensity (a.u.). For “TATCCAACTCCGCGTCCGTCCAGCTCTGCTTCCTACACAACGGAGTCACCTAGTGCAG”, the binding signal was 3190 fluorescence intensity (a.u.). Take “CCTCCCCTCCGAAATGGTACGCCCGTATTTATACCCGTACCGGAGTCACCTAGTGCAG”: the binding signal was 36100 fluorescence intensity (a.u.). For the sequence “AAGCAAACGGTAGAGAGTTGTGATTGGTTGAGTAGTAGAGCGGAGTCACCTAGTGCAG”, the binding signal was 5120 fluorescence intensity (a.u.).

As to “TTCTGAAAGTGCTTATGTGTGCGTATTGTGAGCGCATGTACGGAGTCACCTAGTGCAG”, the binding signal is 20300 fluorescence intensity (a.u.). For the sequence “GCAATCTTTTAAACATTTCCACGCAGGTGATGTAAGCTTTCGGAGTCACCTAGTGCAG”, the binding signal is 3920 fluorescence intensity (a.u.). Turning to “CTATATTTTACTATAAGCTTAATCAAACTTCAAAATATTTCGGAGTCACCTAGTGCAG”, the binding signal is 14400 fluorescence intensity (a.u.).

For the sequence “TTAATGCGAGATTGTGTGGCAGATTCATCCTTTCATTTAGCGGAGTCACCTAGTGCAG”, the binding signal was 3920 fluorescence intensity (a.u.).

For the sequence “TTGGCGTCTTGACGTGTTCGGAGAATTTCCTCTCATTTATCGGAGTCACCTAGTGCAG”, the binding signal is 5280 fluorescence intensity (a.u.). “TCATGCGTGAATGCTAAGATCGATCGGCTTAAGCTCAATGCGGAGTCACCTAGTGCAG”: the binding signal is 3550 fluorescence intensity (a.u.).

Consider “GCCCGCTCGCCCTCTCCCGTGCTGACGCCGGCGCTGAGGCCGGAGTCACCTAGTGCAG”, for which the binding signal was 5700 fluorescence intensity (a.u.).

With “GGCGAATCCGAGGCAGATGGTGCCGTCGTGGACAGAGGCCCGGAGTCACCTAGTGCAG”, the binding signal is 4570 fluorescence intensity (a.u.). With “CTCCTCGGTTTTCATGCCACGCTTTTCAAATTGCTAAACACGGAGTCACCTAGTGCAG” the figure was 3540 fluorescence intensity (a.u.); with “CCATTCGTCAGTAATCTATTGGGGTAGTCAGGCTCGTCCCCGGAGTCACCTAGTGCAG”, 29200 fluorescence intensity (a.u.); with “TCCCTGTTTGTTGGGTCACCAAAGTTGCATCCGACCTATTCGGAGTCACCTAGTGCAG”, 38300 fluorescence intensity (a.u.). The result for “AAGCTCTATAGAATCATTGGCCAGCTGGACAGACAGTCACCGGAGTCACCTAGTGCAG” reads 3770 fluorescence intensity (a.u.).

Regarding “TTAATTCTAATGCCACTTAAGCGCAACGTCAACACCACGTCGGAGTCACCTAGTGCAG”, the binding signal is 18200 fluorescence intensity (a.u.). With “AAGAGGAAGAGAGTGGAGGGGAAGAAGGGGCTGACATGTGCGGAGTCACCTAGTGCAG” the figure was 5910 fluorescence intensity (a.u.). Consider “GACGTATGTTCATCGGAGAGTCCGTCAGCCTTGTCAAAGGCGGAGTCACCTAGTGCAG”, for which the binding signal was 3450 fluorescence intensity (a.u.). Turning to “TAAATTATTAGAGCGCCACGTGGCGGCTTAGAAACGTTTGCGGAGTCACCTAGTGCAG”, the binding signal was 21000 fluorescence intensity (a.u.). For “CGTTCAGATCAGGCGGACTAGGGGAGTACTCCTACGTGTTCGGAGTCACCTAGTGCAG”, the binding signal was 3920 fluorescence intensity (a.u.).

“GCTCCCCTCCTCCTTCGCGCCGCGCCGCCGCCACTCGCCACGGAGTCACCTAGTGCAG”: the binding signal is 3820 fluorescence intensity (a.u.).

With “CAGAAAACAATAGTTATATTTAAGATGGGACGAATGGAGTCGGAGTCACCTAGTGCAG”, the binding signal is 53100 fluorescence intensity (a.u.). “TGTCCCAGCGTCCACGTATACGTTACGTTCCAGAGCTAGCCGGAGTCACCTAGTGCAG”: the binding signal is 8220 fluorescence intensity (a.u.). The result for “CGGGGTGACACATCATTTTGAGGCCACTTGTAGCTCCTATCGGAGTCACCTAGTGCAG” reads 9980 fluorescence intensity (a.u.).
